The test has as its target T1, KDM3A (histone lysine demethylase), endogenous (human (endogenous in hTERT RPE1)) (UniProt Q9Y4C1).
T1 sequence: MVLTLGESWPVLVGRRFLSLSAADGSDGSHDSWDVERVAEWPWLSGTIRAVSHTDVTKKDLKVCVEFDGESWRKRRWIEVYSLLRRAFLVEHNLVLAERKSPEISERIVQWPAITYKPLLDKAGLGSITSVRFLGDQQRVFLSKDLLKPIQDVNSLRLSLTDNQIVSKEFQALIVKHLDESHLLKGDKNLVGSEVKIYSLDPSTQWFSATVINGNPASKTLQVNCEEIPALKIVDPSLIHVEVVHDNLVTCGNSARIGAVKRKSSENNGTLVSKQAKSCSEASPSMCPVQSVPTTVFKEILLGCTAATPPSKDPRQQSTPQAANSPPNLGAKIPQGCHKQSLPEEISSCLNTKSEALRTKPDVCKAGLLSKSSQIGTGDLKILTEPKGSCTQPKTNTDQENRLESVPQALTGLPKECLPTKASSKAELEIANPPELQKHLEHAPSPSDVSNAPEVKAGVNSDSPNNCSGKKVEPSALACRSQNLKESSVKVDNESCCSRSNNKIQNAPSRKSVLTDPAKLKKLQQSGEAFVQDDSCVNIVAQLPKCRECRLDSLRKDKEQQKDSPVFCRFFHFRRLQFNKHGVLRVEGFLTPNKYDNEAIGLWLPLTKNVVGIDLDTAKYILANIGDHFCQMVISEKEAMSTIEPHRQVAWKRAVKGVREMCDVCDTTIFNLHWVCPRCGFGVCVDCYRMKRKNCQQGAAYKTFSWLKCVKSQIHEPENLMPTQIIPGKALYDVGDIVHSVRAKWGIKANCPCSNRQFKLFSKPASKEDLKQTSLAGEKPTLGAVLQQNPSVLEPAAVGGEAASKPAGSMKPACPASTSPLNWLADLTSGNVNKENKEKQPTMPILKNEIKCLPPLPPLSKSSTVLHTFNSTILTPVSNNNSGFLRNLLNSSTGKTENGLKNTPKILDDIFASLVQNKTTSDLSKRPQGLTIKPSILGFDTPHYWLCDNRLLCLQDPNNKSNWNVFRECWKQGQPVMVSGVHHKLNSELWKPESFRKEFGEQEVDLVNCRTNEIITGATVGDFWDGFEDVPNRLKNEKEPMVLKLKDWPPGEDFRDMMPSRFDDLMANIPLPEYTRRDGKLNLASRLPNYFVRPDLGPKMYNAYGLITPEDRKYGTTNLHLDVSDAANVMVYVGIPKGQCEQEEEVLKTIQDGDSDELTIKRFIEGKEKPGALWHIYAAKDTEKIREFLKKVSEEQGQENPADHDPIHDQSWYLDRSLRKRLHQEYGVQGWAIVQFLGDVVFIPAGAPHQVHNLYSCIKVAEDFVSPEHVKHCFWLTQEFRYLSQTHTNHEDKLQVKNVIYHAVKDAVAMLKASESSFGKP
The test is described as follows: affinity purification with mass spectrometry; endogenous KDM3A immunopurified with N-KDM3A antibody and PureProteome magnetic beads from RPE1^WT against KDM3A^null extracts, cells 3 h without serum; 50 mM Tris-HCl pH 7.5, 100 mM NaCl, 10% glycerol, 5 mM EDTA, 0.5% IGEPAL; 2 h at 4°C; label-free quantification.

Chains of the proteins cited; added tags and fusions are not shown.
UniProt P47756: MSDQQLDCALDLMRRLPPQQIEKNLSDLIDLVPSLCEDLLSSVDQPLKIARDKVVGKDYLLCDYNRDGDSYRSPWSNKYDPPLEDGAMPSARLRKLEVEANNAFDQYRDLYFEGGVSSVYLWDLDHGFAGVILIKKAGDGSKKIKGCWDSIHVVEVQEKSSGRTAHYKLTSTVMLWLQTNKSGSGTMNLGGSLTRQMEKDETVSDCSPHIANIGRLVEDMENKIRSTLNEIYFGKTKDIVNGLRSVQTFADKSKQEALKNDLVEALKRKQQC

No constants are given. Whether binding was seen depends on the method and setting. In cells and extracts the contact can be indirect. A yes stands for co-enrichment or nearness to the bait. Other partners may have been found. Tags and fused reporters may be left off the sequences shown.

As to “CAPZB (actin-capping protein), endogenous (from UniProt P47756 1-272)”, the binding entry is reported as “binds”.
